We go through two molecules from paper PMC2881103.

The chains behind the UniProt entries cited, without tags or fusion partners. Where a name states a change or a piece, a line headed by the entry shows the natural chain unless it says otherwise.
UniProt Q9R283: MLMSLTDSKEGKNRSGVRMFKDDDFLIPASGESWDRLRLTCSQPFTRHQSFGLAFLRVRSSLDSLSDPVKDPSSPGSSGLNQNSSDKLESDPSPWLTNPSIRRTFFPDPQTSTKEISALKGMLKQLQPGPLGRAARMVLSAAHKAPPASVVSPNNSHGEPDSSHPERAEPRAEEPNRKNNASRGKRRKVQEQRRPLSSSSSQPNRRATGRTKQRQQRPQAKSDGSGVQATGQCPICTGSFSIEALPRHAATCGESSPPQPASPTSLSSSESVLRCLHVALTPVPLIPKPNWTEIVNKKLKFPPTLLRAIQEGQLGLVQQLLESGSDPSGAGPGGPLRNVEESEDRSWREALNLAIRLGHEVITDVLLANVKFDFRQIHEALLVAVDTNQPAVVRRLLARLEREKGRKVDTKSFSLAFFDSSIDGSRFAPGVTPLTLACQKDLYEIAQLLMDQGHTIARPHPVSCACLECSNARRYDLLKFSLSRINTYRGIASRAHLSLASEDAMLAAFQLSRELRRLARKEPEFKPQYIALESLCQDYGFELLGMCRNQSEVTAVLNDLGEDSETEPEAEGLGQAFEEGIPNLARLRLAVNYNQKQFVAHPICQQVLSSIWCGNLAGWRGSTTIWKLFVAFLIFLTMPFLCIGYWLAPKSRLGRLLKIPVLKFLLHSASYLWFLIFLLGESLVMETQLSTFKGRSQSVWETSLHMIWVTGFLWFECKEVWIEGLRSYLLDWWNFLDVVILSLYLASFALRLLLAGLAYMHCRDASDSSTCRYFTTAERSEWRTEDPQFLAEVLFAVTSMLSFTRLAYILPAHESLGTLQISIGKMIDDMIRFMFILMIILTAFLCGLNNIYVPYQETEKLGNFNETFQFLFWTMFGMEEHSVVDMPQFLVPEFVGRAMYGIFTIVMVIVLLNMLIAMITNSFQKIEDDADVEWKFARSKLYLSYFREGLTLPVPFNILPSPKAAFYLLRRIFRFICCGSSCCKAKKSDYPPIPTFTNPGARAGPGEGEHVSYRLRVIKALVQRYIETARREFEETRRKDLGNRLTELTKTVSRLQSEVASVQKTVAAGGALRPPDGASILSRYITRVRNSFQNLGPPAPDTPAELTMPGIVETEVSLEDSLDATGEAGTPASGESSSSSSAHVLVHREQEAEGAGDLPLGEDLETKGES

In assay [1] the target is T1, receptor transporting protein 1 (RTP1) (rat (endogenous in VNO)) (UniProt D4AEN1).
T1 sequence: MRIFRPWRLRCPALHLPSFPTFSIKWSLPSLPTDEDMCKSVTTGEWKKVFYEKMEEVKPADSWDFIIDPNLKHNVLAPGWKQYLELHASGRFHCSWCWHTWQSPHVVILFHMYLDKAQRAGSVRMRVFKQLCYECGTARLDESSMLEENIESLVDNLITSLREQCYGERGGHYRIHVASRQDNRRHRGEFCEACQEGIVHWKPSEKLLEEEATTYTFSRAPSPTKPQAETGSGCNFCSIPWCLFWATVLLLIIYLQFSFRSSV
As to the kind of experiment: co-IP; native P30 rat VNO lysates, precleared with protein A sepharose; overnight at 4°C with 5 μg/ml antiserum, protein A sepharose 3 hr, four washes; SDS-PAGE and Western blot for the suspected partner; reciprocal. (In western blotting, separated proteins are transferred to a membrane and probed.)

Assay [2] has as its target canonical transient receptor potential channel type 2 (TRPC2) (rat (endogenous in VNO)) (UniProt Q9R283). The description is as above.

No constants are given. Whether binding was seen depends on the method and setting. Binding seen in cells or lysates may run through a third protein. Binding can be weak; no strength is given.

As for “canonical transient receptor potential channel type 2 (TRPC2) (from UniProt Q9R283-2)”, in assay [1], the binding result is “binds”.

B1: receptor transporting protein 1 (RTP1) (protein, UniProt D4AEN1 1-263)
chain: T1 sequence
For B1, the binding result in assay [2] is on record as “binds”.
